In PMC10654059:
Results are given in words; binding and its absence hold for the method and conditions named. For some of these results: A result given as binding can be weak or reduced; the word gives no strength. For some of these results: Binding seen in cells or lysates may run through a third protein. For some of these results: Sequences can lack the tags named with a protein. One block for each molecule: values may come before it.

How the values were obtained:
T18-NudC (E. coli) = molecular target: T1, T18-NudC (E. coli) (UniProt P32664); assay: two-hybrid; bacterial adenylate cyclase two-hybrid (BACTH) in E. coli BTH101; T18 and T25 fusions; colonies on LB agar with X-gal (40 µg/mL) and IPTG (0.5 mM) at 30°C, colour read after 2 days
T1 sequence: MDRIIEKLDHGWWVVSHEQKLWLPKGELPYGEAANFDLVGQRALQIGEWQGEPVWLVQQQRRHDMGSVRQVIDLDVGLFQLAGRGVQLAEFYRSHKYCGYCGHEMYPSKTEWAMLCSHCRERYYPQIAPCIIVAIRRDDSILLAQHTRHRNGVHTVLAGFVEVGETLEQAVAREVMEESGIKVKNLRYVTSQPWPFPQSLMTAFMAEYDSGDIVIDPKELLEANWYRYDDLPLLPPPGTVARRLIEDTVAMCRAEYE

[1] = molecular target: T2, polyhistidine-tagged NudC (NudC-His) (E. coli) (UniProt P32664); assay: pull-down; NudC-His expressed in E. coli BL21(DE3)RIL; 10 µg RNase A added during the incubation with the Ni2+ sorbent; SDS-PAGE
T2 sequence: T1 sequence

[2] = molecular target: T2, polyhistidine-tagged NudC (NudC-His) (E. coli); assay: pull-down; NudC-His expressed in E. coli BL21(DE3)RIL (grown at 16°C or 37°C) or in Hfq-deficient JW4130 (16°C); 5 mg lysate on Ni2+-charged Chelating Sepharose, 1 h 30 min at 8°C, washes with 60 mM imidazole in lysis buffer B (pH 7.4, 100 mM NaCl); SDS-PAGE, band near 70 kDa cut out and identified by mass spectrometry
[3] = molecular target: T2, polyhistidine-tagged NudC (NudC-His) (E. coli); assay: pull-down; 243 µg purified recombinant NudC-His added to 5 mg lysate of E. coli BL21(DE3)RIL (16°C or 37°C) or BW25113 (16°C); Ni2+-charged Chelating Sepharose, 1 h 30 min at 8°C, washes with 60 mM imidazole; SDS-PAGE, band near 70 kDa cut out and identified by mass spectrometry; only the target purified
[4] = molecular target: C-terminal region of NudC (NudC-C), T18 fusion (E. coli); assay: two-hybrid; bacterial adenylate cyclase two-hybrid (BACTH) in E. coli BTH101; T18 and T25 fusions; colonies on LB agar with X-gal (40 µg/mL) and IPTG (0.5 mM) at 30°C, colour read after 2 days
[5] = molecular target: N-terminal region of NudC (NudC-N), T18 fusion (E. coli); assay: as above

binding (T18-NudC (E. coli)): no binding
Molecule: C-terminal region of CsdA (CsdA-C), T25 fusion (E. coli) (domain or fragment)

binding [1]: binds
binding [2]: binds
binding [3]: binds
Molecule: DEAD-box RNA helicase CsdA (from UniProt P0A9P6)

binding (T18-NudC (E. coli)): binds
Molecule: N-terminal region of CsdA (CsdA-N), T25 fusion (E. coli) (domain or fragment)

binding [4]: no binding
binding [5]: binds
B1: CsdA-T25 (protein, UniProt P0A9P6 1-629)
chain: MAEFETTFADLGLKAPILEALNDLGYEKPSPIQAECIPHLLNGRDVLGMAQTGSGKTAAFSLPLLQNLDPELKAPQILVLAPTRELAVQVAEAMTDFSKHMRGVNVVALYGGQRYDVQLRALRQGPQIVVGTPGRLLDHLKRGTLDLSKLSGLVLDEADEMLRMGFIEDVETIMAQIPEGHQTALFSATMPEAIRRITRRFMKEPQEVRIQSSVTTRPDISQSYWTVWGMRKNEALVRFLEAEDFDAAIIFVRTKNATLEVAEALERNGYNSAALNGDMNQALREQTLERLKDGRLDILIATDVAARGLDVERISLVVNYDIPMDSESYVHRIGRTGRAGRAGRALLFVENRERRLLRNIERTMKLTIPEVELPNAELLGKRRLEKFAAKVQQQLESSDLDQYRALLSKIQPTAEGEELDLETLAAALLKMAQGERTLIVPPDAPMRPKREFRDRDDRGPRDRNDRGPRGDREDRPRRERRDVGDMQLYRIEVGRDDGVEVRHIVGAIANEGDISSRYIGNIKLFASHSTIELPKGMPGEVLQHFTRTRILNKPMNMQLLGDAQPHTGGERRGGGRGFGGERREGGRNFSGERREGGRGDGRRFSGERREGRAPRRDDSTGRRRFGGDA
